What all share (test): co-IP
The target of test [1] is OPN3-cFLAG (human opsin3 with a C-terminal FLAG tag) (human) (UniProt Q9H1Y3).
For test [2], the target named is MC1R-n(3xHA) (human melanocortin-1 receptor with an N-terminal 3xHA tag) (human) (UniProt Q01726).
The target of test [3] is OPN3, endogenous in human epidermal melanocytes (human (endogenous in HEMs)) (UniProt Q9H1Y3).

Sequences of proteins named here, by UniProt entry; tags and fusion partners are left off.
UniProt Q9H1Y3: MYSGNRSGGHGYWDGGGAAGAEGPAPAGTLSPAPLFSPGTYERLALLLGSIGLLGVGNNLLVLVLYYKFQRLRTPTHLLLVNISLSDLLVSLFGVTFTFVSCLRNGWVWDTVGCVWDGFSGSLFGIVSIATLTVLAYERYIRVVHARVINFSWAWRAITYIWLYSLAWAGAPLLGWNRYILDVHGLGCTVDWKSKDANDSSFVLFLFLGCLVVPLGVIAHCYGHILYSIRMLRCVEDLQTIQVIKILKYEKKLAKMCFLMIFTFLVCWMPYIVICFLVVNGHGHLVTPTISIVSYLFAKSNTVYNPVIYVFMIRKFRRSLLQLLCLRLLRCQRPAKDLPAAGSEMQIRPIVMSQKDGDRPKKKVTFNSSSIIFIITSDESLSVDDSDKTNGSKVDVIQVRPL
UniProt Q01726: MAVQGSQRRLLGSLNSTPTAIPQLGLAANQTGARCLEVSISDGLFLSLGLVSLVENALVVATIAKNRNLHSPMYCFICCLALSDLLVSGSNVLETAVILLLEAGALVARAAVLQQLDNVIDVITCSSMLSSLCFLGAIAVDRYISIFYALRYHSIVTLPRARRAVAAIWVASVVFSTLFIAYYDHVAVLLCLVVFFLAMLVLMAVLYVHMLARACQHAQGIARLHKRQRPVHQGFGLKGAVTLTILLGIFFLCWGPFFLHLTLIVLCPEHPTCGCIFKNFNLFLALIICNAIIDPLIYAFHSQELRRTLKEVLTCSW

Our source for the binding values is publication doi:10.1101/552851.

No constants are given. Whether binding was seen depends on the method and setting. In cells and extracts the contact can be indirect. Some binding calls cover weakened binding; strength is not graded here.

As to “MC1R-n(3xHA) (human melanocortin-1 receptor with an N-terminal 3xHA tag) (from UniProt Q01726 1-317)”, in test [1], the binding result was “binds”.

Take “OPN3-cFLAG (human opsin3 with a C-terminal FLAG tag) (from UniProt Q9H1Y3 1-402) (receptor)”: the binding result in test [2] is “binds”.

As to “MC1R, endogenous in human epidermal melanocytes (from UniProt Q01726 1-317) (receptor)”, the binding entry in test [3] is “binds”.
